# Results reported in paper PMC7862700.
# The chains behind the UniProt entries cited, without tags or fusion partners. Where a name states a change or a piece, a line headed by the entry shows the natural chain unless it says otherwise.
# UniProt Q00613: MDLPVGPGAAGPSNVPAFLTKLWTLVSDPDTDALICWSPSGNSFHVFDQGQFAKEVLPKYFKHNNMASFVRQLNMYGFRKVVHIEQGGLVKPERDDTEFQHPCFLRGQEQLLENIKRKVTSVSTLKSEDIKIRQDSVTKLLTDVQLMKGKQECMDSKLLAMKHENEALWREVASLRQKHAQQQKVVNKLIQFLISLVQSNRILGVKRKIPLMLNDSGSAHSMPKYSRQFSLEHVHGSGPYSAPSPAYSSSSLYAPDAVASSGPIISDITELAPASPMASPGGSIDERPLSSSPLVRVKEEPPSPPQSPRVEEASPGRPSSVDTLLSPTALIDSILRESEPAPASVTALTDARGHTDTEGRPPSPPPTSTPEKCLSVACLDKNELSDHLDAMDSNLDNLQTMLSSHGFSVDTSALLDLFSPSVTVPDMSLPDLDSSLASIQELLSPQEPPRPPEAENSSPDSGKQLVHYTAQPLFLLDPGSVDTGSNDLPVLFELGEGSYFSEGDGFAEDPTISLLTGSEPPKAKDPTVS
# The entries are a selection whose mix differs from that of the whole data set. For part of these data: At the low end of the ranking the order means little. Some of the results follow. For part of these data: The exact form of the protein is not confirmed.
# Columns and labels:
# HSF1 = HSF1 (UniProt Q00613); experiment: DAPPL (digital affinity profiling via proximity ligation, sequencing); settings: 10 mM Tris-HCl pH 7.5, 50 mM NaCl, 1 mM DTT, 4% glycerol, room temperature, 30 min; GST-TFs on glutathione beads, 16-mer random dsDNA library, 0.1% …; high values mean tight binding; double strand, one strand shown; scale: fold enrichment (6-mer frequency, TF over GST control)
# ELF2 = target: T1, ELF2 (UniProt Q15723); experiment: as above; settings: 10 mM Tris-HCl pH 7.5, 50 mM NaCl, 1 mM DTT, 4% glycerol, room temperature, 30 min; GST-TFs on glutathione beads, 16-mer random dsDNA library, 0.1% …; high values mean tight binding; double strand, one strand shown; scale: fold enrichment (6-mer frequency, TF over GST control)
# T1 sequence: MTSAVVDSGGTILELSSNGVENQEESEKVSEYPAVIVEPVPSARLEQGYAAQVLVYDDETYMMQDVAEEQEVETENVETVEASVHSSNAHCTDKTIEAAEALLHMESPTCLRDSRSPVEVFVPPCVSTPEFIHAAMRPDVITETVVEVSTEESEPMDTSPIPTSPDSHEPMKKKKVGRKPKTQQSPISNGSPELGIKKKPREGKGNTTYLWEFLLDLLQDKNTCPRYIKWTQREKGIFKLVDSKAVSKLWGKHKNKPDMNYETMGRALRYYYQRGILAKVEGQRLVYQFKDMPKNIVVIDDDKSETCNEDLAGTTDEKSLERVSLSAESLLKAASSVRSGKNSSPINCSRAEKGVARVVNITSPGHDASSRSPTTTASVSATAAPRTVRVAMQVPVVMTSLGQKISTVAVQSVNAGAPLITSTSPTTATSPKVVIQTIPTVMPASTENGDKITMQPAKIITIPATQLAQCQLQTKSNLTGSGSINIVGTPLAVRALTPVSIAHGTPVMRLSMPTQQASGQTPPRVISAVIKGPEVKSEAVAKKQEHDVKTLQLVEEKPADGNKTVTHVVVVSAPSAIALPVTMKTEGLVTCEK
Sequence,binding signal (HSF1),binding signal (ELF2)
CTCGAC,1.77,1.38
CCTAAC,1.19,1.35
TGAATA,1.24,1.11
GTTGTC,0.623,0.835
CACATC,0.883,1.49
CTTTGG,1.26,1.05
